Results reported in PubChem BioAssay AID1671190 (National Center for Advancing Translational Sciences (NCATS), 2021).
Several values for one entry are separate records, joined by “and”; a condition that tells them apart may be missing. Equal values may be shown once. About 6,100 (1.1%) of roughly 580,000 compounds were called active. This list was built around the results that the source calls inconclusive (neither active nor inactive); the mix of calls is not that of the screen. The call rests on the fitted dose curve; in most records, active means well fitted inhibition curve with a large enough effect; inconclusive means small, poorly fitted or top-dose-only effect, or another doubt; inactive means no such curve, though single readings can be large or run the other way. Potencies of inconclusive entries are doubtful fits and often do not repeat.

Chains of the proteins cited; added tags and fusions are not shown. Lines headed by an entry give the natural chain unless they say otherwise; changes in a name come on top.
UniProt P18054: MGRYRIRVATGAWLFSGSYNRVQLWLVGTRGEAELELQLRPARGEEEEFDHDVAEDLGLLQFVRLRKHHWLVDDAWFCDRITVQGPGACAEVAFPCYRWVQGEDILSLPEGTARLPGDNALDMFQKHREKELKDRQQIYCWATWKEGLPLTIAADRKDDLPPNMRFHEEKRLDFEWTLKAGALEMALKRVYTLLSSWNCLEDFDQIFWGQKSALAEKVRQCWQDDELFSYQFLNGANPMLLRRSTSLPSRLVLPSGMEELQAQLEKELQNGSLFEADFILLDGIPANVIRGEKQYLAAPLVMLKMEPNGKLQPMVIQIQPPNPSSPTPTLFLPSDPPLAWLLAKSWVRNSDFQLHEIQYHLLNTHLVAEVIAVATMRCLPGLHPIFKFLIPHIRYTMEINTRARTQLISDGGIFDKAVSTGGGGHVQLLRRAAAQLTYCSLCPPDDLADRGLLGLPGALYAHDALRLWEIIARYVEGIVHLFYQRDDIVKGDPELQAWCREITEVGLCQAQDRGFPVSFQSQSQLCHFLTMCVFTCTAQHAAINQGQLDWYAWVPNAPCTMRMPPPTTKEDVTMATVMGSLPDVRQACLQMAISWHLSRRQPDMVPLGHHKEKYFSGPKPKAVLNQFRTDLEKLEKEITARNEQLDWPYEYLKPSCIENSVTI

What follows are compounds tested against Polyunsaturated fatty acid lipoxygenase ALOX12 (Homo sapiens) (UniProt P18054) (assay: Primary qHTS assay for inhibitors of human arachidonate 12S-lipoxygenase (ALOX12): Round 2). Settings: purified 12hLO, xylenol orange hydroperoxide absorbance; activity change, negative = inhibition: at 108 µM (top of the series) unless noted.
How it was run: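 Purified human 12hLO at 150 nM in 25 mM Hepes, 0.01% Triton X-100, pH 7.0, preincubated 15 min at room temperature with compound. Reaction started with 40 uM arachidonic acid, 30 min at room temperature. Hydroperoxide measured by Fe-xylenol orange, 573/405 nm absorbance ratio.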
On the % scale 0 is the no-effect control and ±100 the full control effect; potency means the concentration at half of the fitted maximal effect.

Row | SMILES | Potency | activity change, negative = inhibition
1 | CCc1nc(C)ccc1OCC(=O)N1Cc2[nH]cnc2CC1C(=O)O (stereo not drawn) | inconclusive: 7.08 µM [inhibitor, full curve] | –
2 | CC1(C)Cc2sc3c(=O)n(Cc4ccc(Br)cc4)cnc3c2CO1 | – | inactive: -4.46%
3 | Cc1nc2scc(CC(=O)N3CCOCC3)n2c(=O)c1-c1cc(C)n(-c2ccc(F)cc2)n1 | inconclusive: 39.8 µM [inhibitor, single point] | –
4 | Cc1occc1-c1n[nH]c(=S)n1CC(C)C | inconclusive: 39.8 µM [inhibitor, partial curve, poor fit] | –
5 | N/C(=N\S(=O)(=O)c1ccc(Cl)cc1)N1CCOCC1 | inconclusive: 100 µM [inhibitor, single point] | –
6 | CCOC(=O)CN1CC23C=CC(O2)C(C(=O)Nc2ccc(F)c(C)c2)C3C1=O (stereo not drawn) | inconclusive: 100 µM [inhibitor, single point] | –
7 | Cc1cnc(CNc2cc(-c3ccoc3)ncn2)cn1 | inconclusive: 44.7 µM [inhibitor, partial curve, poor fit] | –
8 | CCOC(=O)C1=C(CCc2ccccc2)NC(=O)NC1c1cccc([N+](=O)[O-])c1 (stereo not drawn) | inconclusive: 31.6 µM [inhibitor, single point] | –
9 | Fc1ccc(N/N=C/c2ccc(-c3ccccc3)cc2)c(F)c1 | active: 2.24 µM | –
10 | Cc1ccc(Nc2nc(-c3ccc([N+](=O)[O-])cc3)nc3ccccc23)cc1 | inconclusive: 7.08 µM [inhibitor, partial curve, poor fit] | –
11 | Cc1ccc(NC(NC(=O)c2ccco2)C(=O)c2ccccc2)cc1 (stereo not drawn) | inconclusive: 31.6 µM [inhibitor, partial curve, poor fit] | –
12 | CCCCNC(=S)NCCN1CCCCC1 | inconclusive: 50.1 µM [inhibitor, partial curve, poor fit] | –
13 | CC1(OC(=O)CCc2ccccc2)C(=O)C=C2C=C(c3ccc(C#N)cc3)N(Cc3ccco3)C=C2C1=O (stereo not drawn) | inconclusive: 39.8 µM [inhibitor, partial curve, poor fit] | –
14 | CCCn1c2ccc(/C(C)=N\O)cc2c2cc(/C(C)=N/O)ccc21 | inconclusive: 12.6 µM [inhibitor, full curve] | –
15 | Cc1nn(CC(C)C)c(Cl)c1C(=O)NCC1CCCO1 (stereo not drawn) | inconclusive: 39.8 µM [inhibitor, partial curve, poor fit] | –
16 | Cc1nnc(NC(=O)c2c(-c3ccccc3Cl)noc2C)s1 | inconclusive: 3.16 µM [inhibitor, full curve, poor fit] | –
17 | O=C(c1cnc(Cl)c(Cl)c1)N1CCN(S(=O)(=O)c2ccc3ccccc3c2)CC1 | inconclusive: 0.1 µM [inhibitor, full curve, poor fit] | –
18 | CCc1c(C(=O)Nc2sc(C)c(C)c2C#N)csc1C | inconclusive: 11.2 µM [inhibitor, full curve, poor fit] | –
19 | CC(C)(C)c1ccc(OC(=O)N2CCOCC2)cc1 | – | inactive: -2.95%
20 | COc1ccc2nc(C)c(C(=O)NC34CC5CC(CC(C5)C3)C4)cc2c1 | – | inactive: -23.5%
21 | On1nnc2c1ccc1nnn(O)c12 | inconclusive: 22.4 µM [inhibitor, partial curve, poor fit] | –
22 | Cc1oc(-c2nc(C#N)c(NC3CC3)o2)cc1S(=O)(=O)N(C)c1ccccc1 | inconclusive: 31.6 µM [inhibitor, single point] | –

Row | SMILES | Potency | activity change, negative = inhibition
23 | CCc1ccc(N2CC(c3nc4ccccc4n3CCN3CCOCC3)CC2=O)cc1 (stereo not drawn) | – | inactive: 14.5%
24 | O=C(O)C1CCc2nnc(C3CCN(C(=O)c4ccc5c(c4)OCO5)CC3)n21 (stereo not drawn) | inconclusive: 2.85 µM [inhibitor, single point] | –
25 | Cc1noc(C2CC3(CCN(C(=O)Cn4nc(C(F)(F)F)cc4C)CC3)CN2C)n1 (stereo not drawn) | – | inactive: 40.8%
26 | COc1ccccc1-c1ccnc(-n2ncc(C(=O)N(C)C(C)c3ccon3)c2C2CC2)n1 (stereo not drawn) | – | inactive: 2.22%
27 | CN(CC(=O)Nc1c(Cl)cccc1Cl)C(=O)c1ccccc1SCC(=O)N1CCCC1 | – | inactive: -2.93%
28 | CCOc1cc(CNC2CCCC2)cc(Cl)c1OCc1ccc(F)cc1 | inconclusive: 44.7 µM [inhibitor, partial curve] | –
29 | COc1ccc(CN2Cc3[nH]nc(-c4ccnn4C)c3CC2=O)cc1 | inconclusive: 141 µM [inhibitor, partial curve, poor fit] | –
30 | CC[C@@H]1C(=O)[C@H](Cc2ccccc2)[C@H]2CCCC(=O)N3CC[C@@H]1[C@@H]23 | inconclusive: 35.5 µM [inhibitor, partial curve] | –
31 | CCCOc1ccccc1Oc1ncccc1CNC(=O)NCC | – | inactive: 0.99%
32 | C=CCn1c(O)c(N=NC(=O)CNC(=O)c2ccco2)c2ccccc21 | – | inactive: -1.38%
33 | Cc1ccc(-n2c(-c3cnccn3)n[nH]c2=S)c(Br)c1 | inconclusive: 35.5 µM [inhibitor, single point] | –
34 | CN(C)c1nc(N(C)C)nc(N2CC(=O)N(c3ccccc3)C2=N)n1 | – | inactive: 15.2%
35 | CCc1cc2c(NCc3ccccc3)nc(C)nc2s1 | inconclusive: 17.8 µM [inhibitor, partial curve] | –
36 | COC(=O)c1ccc(/C=N/NS(=O)(=O)c2cc(C)ccc2C)cc1 | – | inactive: -16.8%
37 | COc1ccccc1/C=C/C=N/N1CCN(Cc2ccc(Cl)cc2)CC1 | inconclusive: 12.6 µM [inhibitor, full curve] | –
38 | COc1ccc(Cn2c(CCC(=O)Nc3ccc(C)cc3)nc3cccnc32)cc1 | inactive and inconclusive: 100 µM [inhibitor, partial curve, poor fit] | –
39 | CNC(=O)CCn1ncc2cc(OCc3ccccc3-c3cccc(O)c3)ccc21 | inconclusive: 89.1 µM [inhibitor, partial curve, poor fit] | –
40 | COc1ccc(CCNS(=O)(=O)c2ccc(Br)cc2)cc1OC | inconclusive: 112 µM [inhibitor, single point] | –
41 | COc1ccc(NC(=O)O/N=C/c2c(C)nn(C(C)(C)C)c2C)cc1 | – | inactive: 58.7%
42 | CCn1c(CNC(C)=O)nnc1SCC(=O)c1ccc(Br)cc1 | inconclusive: 35.5 µM [inhibitor, partial curve, poor fit] | –
43 | CCOC(=O)N1CCN(C(=O)c2cc3occc3n2Cc2ccccc2Cl)CC1 | inconclusive: 39.8 µM [inhibitor, partial curve, poor fit] | –

A second format for three compounds above.
Row	SMILES	Potency	activity change, negative = inhibition
8	CCOC(=O)C1=C(CCc2ccccc2)NC(=O)NC1c1cccc([N+](=O)[O-])c1 (stereo not drawn)	inconclusive: 31.6 µM [inhibitor, single point]	–
9	Fc1ccc(N/N=C/c2ccc(-c3ccccc3)cc2)c(F)c1	active: 2.24 µM	–
10	Cc1ccc(Nc2nc(-c3ccc([N+](=O)[O-])cc3)nc3ccccc23)cc1	inconclusive: 7.08 µM [inhibitor, partial curve, poor fit]	–
